Results are given in words; binding and its absence hold for the method and conditions named. Binding can be weak; no strength is given. Where a sequence is shown, tags or fusion partners need not be part of it.
What was measured:
[1] = target: Msm σ^A-6xHis (for cryo-EM) (Mycobacterium smegmatis) (UniProt A0QW02); test: cryo-EM structure; RNAP core, HelD, σ^A, RbpA mixed 1:3:3:5 at 4 °C, SEC-purified (Superose 6 Increase; 20 mM Tris-HCl pH 7.8, 150 mM NaCl, 10 mM MgCl2, 1 mM DTT); no DNA; both purified
[2] = target: Msm σ^A-6xHis (for cryo-EM) (Mycobacterium smegmatis) (UniProt A0QW02); test: cryo-EM structure; RNAP, HelD, σ^A, RbpA and upstream fork promoter DNA (TK71/72) mixed 1:3:3:5:5 at 4 °C, SEC-purified (20 mM Tris-HCl pH 7.8, 150 mM NaCl, 10 mM MgCl2, 1 mM DTT); both purified

Sequences of proteins named here, by UniProt entry; tags and fusion partners are left off. A change or cut given only in a name is not applied to a line headed by its entry.
UniProt A0QW02: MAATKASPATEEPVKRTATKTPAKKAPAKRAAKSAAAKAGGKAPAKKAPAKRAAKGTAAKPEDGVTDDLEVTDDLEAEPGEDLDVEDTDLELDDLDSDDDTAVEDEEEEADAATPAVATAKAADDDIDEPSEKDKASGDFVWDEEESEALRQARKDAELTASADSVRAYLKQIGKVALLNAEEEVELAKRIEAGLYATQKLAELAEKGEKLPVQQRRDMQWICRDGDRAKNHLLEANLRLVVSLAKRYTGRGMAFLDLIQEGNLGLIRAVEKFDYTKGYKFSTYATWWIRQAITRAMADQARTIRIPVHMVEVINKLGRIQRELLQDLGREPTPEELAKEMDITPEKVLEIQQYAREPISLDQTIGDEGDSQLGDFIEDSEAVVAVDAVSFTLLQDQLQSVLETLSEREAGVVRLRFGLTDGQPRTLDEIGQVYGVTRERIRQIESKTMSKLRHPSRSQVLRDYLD

B1: Msm HelD, wild type, recombinant tag-less (enzyme, UniProt A0QUE0 1-736)
chain: MSGRDYEDELQSERDYVAGLYARLDAERAQSQRRYAAALREHGGTAVERDAEVRALAKDIARLNVADNGLCFGRLDTLDDARLYIGRLGIFDRDNDFEPLLLDWRAPMARPFYVATAANPENMRRRRQFHTLGRKVVDFTDEILGRPTGAEHDATNDAALLAAVNAPRGEGMRDIVATIQAEQDQVIRLDHTGVLVIEGGPGTGKTVVALHRVAYLLYTYRKQMERHGVLVVGPTPAFLDHIGRVLPSLGESDAVFMTPGDFVPGLHVTAEDTPEAAEVKGSLKILDVLKAAVADRQELPSEPIPIDLSDVTMRIDAETAKWARDEARKTGLPHNEARAEFVDVVTYVVTERAVARIGRGWLTRDDKHAWEKMRADVVGELEDHEQFNAALDALWPILTPEDVLAQLYTSHERLRAAGAPECLWRADGEAWTVSDVPLLDELVDLLGRNKAADEAAERERREEEAYAAGVLDLMVDREDLMDDEDHLLAQDLIDAEELADRFKEQDNRELSERAAADREWTYGHVVVDEAQELSEMDWRLLMRRCPRRSFTIVGDLAQRRSPAGARSWGAMLDSYVPGRWVYKSLSVNYRTPAEIMAVAAAVLAEFAPDATPPDSVRACGVAPWARQVTDDDIASAIAEFVSEEAGREGTSVVIGPPDVPGTVPPSETKGLEFDAVLVVEPERILADGPRGAAELYVALTRATQRLGVLYRDALPQALAGLAEGDAAATVEQRTSA
For B1, the binding [1] was “binds” and the binding [2] was “binds”.

Source: PMC11464796
